Laboratory results reported in the supplement of paper PMC7024190.
Counter-ions that a name gives are not always drawn. Some of the results follow. Single values are uncertain here, since repeats match poorly.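 Human embryonic kidney cells were transiently transfected with a plasmid bearing a Renilla luciferase gene under the HSV-TK promoter. This first-round screen tests roughly ten thousand compounds for ones that increase reporter output.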

These compounds were tested on HEK 293FT (assay: log relative Renilla luciferase luminescence (reporter expression vs reference, reference not stated) (log (base not stated)); higher = higher recombinant reporter expression). Conditions: 10 µM; time after transfection 48 h.

Compound	log
C[C@@H]1CC(=O)NN=C1c1ccc(NN=C(C#N)C#N)cc1 [levosimendan]	-0.0919
N[C@H](Cc1ccccc1)C(=O)O [d-phenylalanine]	0.0832
O=C1C=CC(=C(c2ccc(O)cc2)c2ccc(O)cc2)C=C1 [rosolic acid]	0.162
CCCc1nc(C)c2c(O)nc(-c3cc(S(=O)(=O)N4CCN(CC)CC4)ccc3OCC)nn12 [vardenafil hydrochloride]	-0.0187
COc1cc2c(cc1OC)-c1cc3ccc(OC)c(OC)c3c[n+]1CC2 [palmatine chloride]	0.24
COc1cc2c(cc1OC)-c1cc3ccc(OC)c(OC)c3c[n+]1CC2 [palmatine]	-0.536
COC(=O)[C@H]1[C@H]2C[C@@H]3c4[nH]c5cc(OC)ccc5c4CCN3C[C@H]2C[C@@H](OC(=O)c2cc(OC)c(OC)c(OC)c2)[C@@H]1OC [reserpine]	-0.0449
CNC(=C[N+](=O)[O-])NCCSCc1ccc(CN(C)C)o1 [ranitidine hydrochloride]	-0.0535
CC(C)(CO)[C@@H](O)C(=O)NCCCO [dexpanthenol]	-0.0411
C[C@]12CC[C@@H](O)C[C@H]1CCc1ccccc12 [3alpha-hydroxy-4,4-bisnor-8,11,13-podocarpatriene]	0.0483
O=C(O[C@@H]1Cc2c(O)cc(O)cc2O[C@@H]1c1cc(O)c(O)c(O)c1)c1cc(O)c(O)c(O)c1 [epigallocatechin-3-monogallate]	0.0398
CCOC(=O)[C@H](CCc1ccccc1)N[C@@H](C)C(=O)N1[C@H](C(=O)O)C[C@H]2CCCC[C@@H]21 [trandolapril]	-0.127
CC[C@H](CC[C@@H](C)[C@H]1CC[C@H]2[C@@H]3CC=C4C[C@@H](OC(C)=O)CC[C@]4(C)[C@H]3CC[C@]12C)C(C)C [sitosteryl acetate]	-0.0361
CC(C(=O)O)[C@H]1CCC2C3CC=C4C[C@@H](O)CC[C@]4(C)C3CC[C@@]21C (stereo partly drawn) [3beta-hydroxy-23,24-bisnorchol-5-enic acid]	-0.25
CN1C(=O)CC(C)(c2ccccc2)C1=O (stereo unspecified) [methsuximide]	-0.0732
CCN(CC)CCNC(=O)c1ccc(NC(C)=O)cc1 [acecainide hydrochloride]	0.12
CNC[C@H](O)c1cccc(O)c1 [phenylephrine hydrochloride]	-0.0953
CO[C@H]1C[C@@H]2CC[C@@H](C)[C@@](O)(O2)C(=O)C(=O)N2CCCC[C@H]2C(=O)O[C@H]([C@H](C)C[C@@H]2CC[C@@H](O)[C@H](OC)C2)CC(=O)[C@H](C)/C=C(\C)[C@@H](O)[C@@H](OC)C(=O)[C@H](C)C[C@H](C)/C=C/C=C/C=C/1C [sirolimus]	0.0773
CCOc1ccccc1C(N)=O [ethenzamide]	-1.12
COC(=O)C[C@H]1C(C)(C)[C@@H](OC(C)=O)[C@@H]2CC3=C4CC(=O)O[C@@H](c5ccoc5)[C@]4(C)CC[C@@H]3[C@@]1(C)C2=O [fissinolide]	0.224
NS(=O)(=O)c1ccc(C(=O)O)cc1 [carzenide]	-0.0831
CC(=O)O[C@@H]1C[C@@]2(C)C(CC[C@@H]2C(C)=O)C2CCC3=CC(=O)CC[C@]3(C)C21 (stereo partly specified) [11a-acetoxyprogesterone]	0.0463

Compound	log
CCN(CC)CCCC(C)Nc1c2ccc(Cl)cc2nc2ccc(OC)cc12 (stereo unspecified) [quinacrine hydrochloride]	0.135
Cc1nc(C)c(Cl)c(O)c1Cl [clopidol]	0.0409
CCCCCCCCCCCCCCCC[N+](C)(C)CCN(Cc1ccc(OC)cc1)c1ncccn1 [thonzonium bromide]	0.0296
O=C(O)P(=O)(O)O [foscarnet sodium]	0.0746
C#C[C@]1(O)CC[C@H]2[C@@H]3CCc4cc(OC)ccc4[C@H]3CC[C@@]21C [mestranol]	0.0663
CC(C)NCC(O)c1ccc(NS(C)(=O)=O)cc1 (stereo unspecified) [sotalol hydrochloride]	-0.128
CC(=O)N1CCN(c2ccc(OCC3COC(Cn4ccnc4)(c4ccc(Cl)cc4Cl)O3)cc2)CC1 (stereo unspecified) [ketoconazole]	-0.0999
CCn1cc(C(=O)O)c(=O)c2cc(F)c(N3CCN(C)CC3)cc21 [pefloxacine mesylate]	0.0481
CCCCC(=O)Oc1ccccc1C(=O)O [valeryl salycilate]	0.105
Cc1ccc(S(=O)(=O)NCl)cc1 [chloramine-t]	0.0256
C[C@@H]1CN(c2c(F)c(N)c3c(=O)c(C(=O)O)cn(C4CC4)c3c2F)C[C@H](C)N1 [sparfloxacin]	0.0698
C[C@@H]1O[C@@H]1P(=O)(O)O [fosfomycin calcium]	0.205
CC1(C)[C@@H](O[C@H]2O[C@H](C(=O)O)[C@@H](O)[C@H](O)[C@H]2O[C@@H]2O[C@H](C(=O)O)[C@@H](O)[C@H](O)[C@H]2O)CC[C@]2(C)[C@H]3C(=O)C=C4[C@@H]5C[C@@](C)(C(=O)O)CC[C@]5(C)CC[C@@]4(C)[C@]3(C)CC[C@@H]12 [glycyrrhizic acid, ammonium salt]	0.00248
CCOC(=O)CCC(=O)O[C@H]1[C@H](O[C@@H]2[C@@H](C)[C@H](O[C@H]3C[C@@](C)(OC)[C@@H](O)[C@H](C)O3)[C@@H](C)C(=O)O[C@H](CC)[C@@](C)(O)[C@H](O)[C@@H](C)C(=O)[C@H](C)C[C@@]2(C)O)O[C@H](C)C[C@@H]1N(C)C [erythromycin ethylsuccinate]	-0.101
C[C@]12C=CC(=O)C=C1CC[C@@H]1[C@@H]2C(=O)C[C@@]2(C)[C@H]1CC[C@]2(O)C(=O)CO [prednisone]	-0.0051
CCn1cc(C(=O)O)c(=O)c2cc(F)c(N3CCNC(C)C3)c(F)c21 (stereo unspecified) [lomefloxacin hydrochloride]	-0.152
CS(=O)(=O)Nc1ccc([N+](=O)[O-])cc1Oc1ccccc1 [nimesulide]	-0.202
OCc1ccccc1 [benzyl alcohol]	0.0336
CNC(=C[N+](=O)[O-])NCCSCc1csc(CN(C)C)n1 [nizatidine]	-1.75
OC[C@H]1O[C@@H](OCCc2ccc(O)cc2)[C@H](O)[C@@H](O)[C@@H]1O [salidroside]	-0.0135
CNCCC=C1c2ccccc2CCc2ccccc21 [nortriptyline hydrochloride]	-0.0656
CCc1c2c(nc3ccc(OC(=O)N4CCC(N5CCCCC5)CC4)cc13)-c1cc3c(c(=O)n1C2)COC(=O)[C@]3(O)CC [irinotecan hydrochloride]	-0.467

Taken from the results shown for reference:
Compound	log
Cc1nc(C)c(Cl)c(O)c1Cl [clopidol]	0.0409
CCCCCCCCCCCCCCCC[N+](C)(C)CCN(Cc1ccc(OC)cc1)c1ncccn1 [thonzonium bromide]	0.0296
O=C(O)P(=O)(O)O [foscarnet sodium]	0.0746
C#C[C@]1(O)CC[C@H]2[C@@H]3CCc4cc(OC)ccc4[C@H]3CC[C@@]21C [mestranol]	0.0663
CC(C)NCC(O)c1ccc(NS(C)(=O)=O)cc1 (stereo unspecified) [sotalol hydrochloride]	-0.128
CC(=O)N1CCN(c2ccc(OCC3COC(Cn4ccnc4)(c4ccc(Cl)cc4Cl)O3)cc2)CC1 (stereo unspecified) [ketoconazole]	-0.0999
CCn1cc(C(=O)O)c(=O)c2cc(F)c(N3CCN(C)CC3)cc21 [pefloxacine mesylate]	0.0481
CCCCC(=O)Oc1ccccc1C(=O)O [valeryl salycilate]	0.105
Cc1ccc(S(=O)(=O)NCl)cc1 [chloramine-t]	0.0256
C[C@@H]1CN(c2c(F)c(N)c3c(=O)c(C(=O)O)cn(C4CC4)c3c2F)C[C@H](C)N1 [sparfloxacin]	0.0698
C[C@@H]1O[C@@H]1P(=O)(O)O [fosfomycin calcium]	0.205
CC1(C)[C@@H](O[C@H]2O[C@H](C(=O)O)[C@@H](O)[C@H](O)[C@H]2O[C@@H]2O[C@H](C(=O)O)[C@@H](O)[C@H](O)[C@H]2O)CC[C@]2(C)[C@H]3C(=O)C=C4[C@@H]5C[C@@](C)(C(=O)O)CC[C@]5(C)CC[C@@]4(C)[C@]3(C)CC[C@@H]12 [glycyrrhizic acid, ammonium salt]	0.00248
CCOC(=O)CCC(=O)O[C@H]1[C@H](O[C@@H]2[C@@H](C)[C@H](O[C@H]3C[C@@](C)(OC)[C@@H](O)[C@H](C)O3)[C@@H](C)C(=O)O[C@H](CC)[C@@](C)(O)[C@H](O)[C@@H](C)C(=O)[C@H](C)C[C@@]2(C)O)O[C@H](C)C[C@@H]1N(C)C [erythromycin ethylsuccinate]	-0.101
C[C@]12C=CC(=O)C=C1CC[C@@H]1[C@@H]2C(=O)C[C@@]2(C)[C@H]1CC[C@]2(O)C(=O)CO [prednisone]	-0.0051
CCn1cc(C(=O)O)c(=O)c2cc(F)c(N3CCNC(C)C3)c(F)c21 (stereo unspecified) [lomefloxacin hydrochloride]	-0.152
CS(=O)(=O)Nc1ccc([N+](=O)[O-])cc1Oc1ccccc1 [nimesulide]	-0.202
OCc1ccccc1 [benzyl alcohol]	0.0336

Further entries.

Compound	log
Cc1ccc2c(c1)CC[C@H]1CC(=O)CC[C@]21C [13-methyl-4,4-bisnor-8,11,13-podocarpatrien-3-one]	-0.0595
Cc1ccc(/C(=C\CN2CCCC2)c2ccccn2)cc1 [triprolidine hydrochloride]	-0.0569
C[C@@H](O)[C@H](N)C(=O)O [threonine (l)]	0.042
CC(C)(O/N=C(\C(=O)N[C@@H]1C(=O)N2C(C(=O)[O-])=C(C[n+]3ccccc3)CS[C@H]12)c1csc(N)n1)C(=O)O [ceftazidime]	0.0168
CN1CCN(C(c2ccccc2)c2ccc(Cl)cc2)CC1 (stereo unspecified) [chlorcyclizine hydrochloride]	-0.125
Cc1ccc(C(C)C)cc2c(C)ccc1-2 [guaiazulene]	0.102
O=C(N/N=C/c1ccc([N+](=O)[O-])o1)c1ccc(O)cc1 [nifuroxazide]	-1.56
NC(=O)c1ncn([C@@H]2O[C@H](CO)[C@@H](O)[C@H]2O)c1O [mizoribine]	0.127
CC(=O)Nc1ccc(S(=O)(=O)Nc2ccc([N+](=O)[O-])cc2)cc1 [sulfanitran]	0.266
Cc1ccc(C(=O)Nc2ccc(S(=O)(=O)O)c3cc(S(=O)(=O)O)cc(S(=O)(=O)O)c23)cc1NC(=O)c1cccc(NC(=O)Nc2cccc(C(=O)Nc3cc(C(=O)Nc4ccc(S(=O)(=O)O)c5cc(S(=O)(=O)O)cc(S(=O)(=O)O)c45)ccc3C)c2)c1 [suramin hexasodium]	0.0627
CCc1cc(C(N)=S)ccn1 [ethionamide]	0.201
CC(=O)Nc1c(I)c(NC(C)=O)c(I)c(C(=O)O)c1I [diatrizoic acid]	0.0256
C#C[C@]1(O)CC[C@H]2[C@@H]3[C@H](C)CC4=C(CCC(=O)C4)[C@H]3CC[C@@]21C [tibolone]	-0.114
S=C=Nc1ccc(N=C=S)cc1 [bitoscanate]	-0.34
OC[C@@H](O)[C@@H](O)[C@H](O)[C@@H](O)CO [sorbitol]	-1.36
CCCCC(=O)O[C@]1(C(=O)CO)[C@@H](C)C[C@H]2[C@@H]3CCC4=CC(=O)C=C[C@]4(C)[C@@]3(F)[C@@H](O)C[C@@]21C [betamethasone valerate]	-0.0458
COc1cc(C(=O)N2CCOCC2)cc(OC)c1OC [trimetozine]	-0.0585
CC(=O)OCC(=O)[C@@]1(O)CC[C@H]2[C@@H]3CCC4=CC(=O)CC[C@]4(C)[C@H]3C(=O)C[C@@]21C [cortisone acetate]	-0.31
CC(=O)OCC(=O)[C@@]1(O)CC[C@H]2[C@@H]3CCC4=CC(=O)C=C[C@]4(C)[C@@]3(F)[C@@H](O)C[C@@]21C [isoflupredone acetate]	-0.11
COc1cc(O)c(C(C)=O)c(OC)c1 [xanthoxylin]	0.00663
CN(C)CCCOc1nn(Cc2ccccc2)c2ccccc12 [benzydamine hydrochloride]	0.0146
CC(C)(O)CC[C@@H](O)[C@](C)(O)[C@H]1CC[C@@]2(O)C3=CC(=O)[C@@H]4C[C@@H](O)[C@@H](O)C[C@]4(C)[C@H]3CC[C@]12C [crustecdysone]	-0.658
